Experimental data reported in PubChem BioAssay AID652054 (National Center for Advancing Translational Sciences (NCATS), 2013).
In all, about 360,000 compounds went through this assay and about 9,100 (2.5%) were called active. Inconclusive means that the source gave no clear call. Such entries were picked first, then a sample of the others. Rule as the data show it: active = max response below about -50%; inconclusive = no clear call, values can overlap the other calls; inactive = above that.

Amino acid sequences for entries named in this document (tags omitted).
UniProt P35462, whole entry, looked up: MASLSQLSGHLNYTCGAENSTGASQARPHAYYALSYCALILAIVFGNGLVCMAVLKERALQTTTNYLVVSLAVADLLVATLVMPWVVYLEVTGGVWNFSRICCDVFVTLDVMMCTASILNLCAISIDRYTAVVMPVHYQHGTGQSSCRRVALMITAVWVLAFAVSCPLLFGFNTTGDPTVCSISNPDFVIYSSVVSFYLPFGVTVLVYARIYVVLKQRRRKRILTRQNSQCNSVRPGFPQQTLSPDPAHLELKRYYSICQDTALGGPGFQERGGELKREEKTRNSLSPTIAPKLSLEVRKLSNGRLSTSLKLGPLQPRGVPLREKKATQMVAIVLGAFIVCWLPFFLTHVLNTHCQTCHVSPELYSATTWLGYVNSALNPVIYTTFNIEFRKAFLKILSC

Biological target: D(3) dopamine receptor (Homo sapiens) (UniProt P35462)
Assay: qHTS of D3 Dopamine Receptor Antagonist: qHTS
Settings: D3R cells, DiscoveRx beta-arrestin luminescence, antagonist mode; hits give low values
Summary of the method: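 Cells plated overnight at 1500 cells/well, then exposed to library compounds with dopamine controls for 90 minutes at 37 degrees C. DiscoveRx reagent added for 30–60 minutes at room temperature; luminescence read, quantitative HTS format.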
% is scaled to controls: 0 for no effect and ±100 for the full control effect.

Structure (SMILES)	max response, negative = inhibition
Nc1ncnc2c1ncn2[C@@H]1O[C@H](C(=O)N2CCN(Cc3ccccn3)CC2)[C@@H](O)[C@H]1O	inactive: -21.4%
O=C(CN1CCN(c2ccccc2)CC1)Nc1cccc([N+](=O)[O-])c1	inconclusive: -32.4%
COc1cccc(-c2cccc(NC(=O)C3CCN(CCCn4cccn4)CC3)c2)c1	inactive: -2.99%
Cc1ccc(NC(=O)c2ccccc2O)cc1	inconclusive: -33.7%
COc1ccc(CCNCc2ccc(-c3ccccc3)cc2)cc1OC	inconclusive: -36.1%
Cc1cccc(C)c1-n1c(C)cc(/C=N\NC(=O)CC(=O)NC2CCCCC2)c1C	inconclusive: -31.5%
O=C(NC1CCCC1)c1n[nH]c2ccccc12	inactive: -0.508%
CCN(CC)CCCN=C1N[C@@H](c2cccc(F)c2)C(C(=O)OC)=C(C)N1Cc1ccccc1	inactive: -12.5%
c1ccc(CNc2nc(-c3ccccn3)nc3ccccc23)cc1	active: -74.2%
O=C(NCC(c1cccs1)N1CCOCC1)C1CCN(S(=O)(=O)c2cccc(C(F)(F)F)c2)CC1 (configuration not stated)	inactive: -22%
C/C(=N\NS(=O)(=O)c1ccc(Cl)c([N+](=O)[O-])c1)c1cc2ccccc2o1	active: -97.8%
CN(CCNC(=O)C1(O)c2ccccc2NC(=O)N1c1ccccc1)Cc1ccccc1 (configuration not stated)	inconclusive: -47.3%
O=C(C1=C[C@@H](c2ccc(C(F)(F)F)cc2)C[C@@H](OCCCCO)O1)N1CCN(Cc2ccc3c(c2)OCO3)CC1	inactive: -2.63%
CCCCc1[nH]c(=O)c(C#N)c2c1CCCC2	inactive: -10.3%
COc1ccc(S(=O)(=O)N(C)CC(=O)Nc2ccccc2SC)cc1Cl	inconclusive: -37.3%
Cc1cc(C)nc(Sc2ncnc3sc4c(c23)CCC4)n1	inactive: 0.701%
C[C@@H](NC(=O)c1[nH]cnc1C(=O)Nc1ccon1)c1ccccc1	inconclusive: -40.5%
C=CCc1ccc(OCCCNCc2ccccc2)c(OC)c1	active: -78.9%
COc1[nH]c2ccc(F)cc2c1C(=O)OCC1CCN(CCNS(C)(=O)=O)CC1	active: -55.2%
CC(C)CC1C(=O)N(Cc2cn(CCC3OCCO3)nn2)CCS(=O)(=O)N1Cc1ccc(-c2cccc(N(C)C)c2)cc1 (configuration not stated)	inconclusive: -34.4%
CCOC(=O)C1CCN(Cc2ccc(O)c3ncccc23)CC1	active: -92.5%
O=C(O)c1cccc(NC(=O)C2CC(=O)N(Cc3ccccc3)C2)c1 (configuration not stated)	active: -50.6%

Structure (SMILES)	max response, negative = inhibition
Oc1c(Br)cc(/C=N/n2c(-c3ccccc3)n[nH]c2=S)c(O)c1Br	inactive: 0.191%
CCOC(=O)/C(C#N)=C/c1cc(C)n(-c2ccc(C)cc2)c1C	inconclusive: -39.2%
CC(=O)Nc1cc(-c2ccc(CO)cc2)cn2c(-c3ccc(F)cc3)cnc12	active: -50.2%
COc1ccc(C(=O)CSc2nnc(CCc3ccccc3)n2-c2ccccc2)cc1	inconclusive: -48.3%
CC(=O)c1ccc(OC2(C)CCN(Cc3ccccc3OC(F)F)C2)cc1 (configuration not stated)	inconclusive: -45.7%
Cc1c(C(=O)NC(C)C2CC3CCC2C3)cccc1[N+](=O)[O-] (configuration not stated)	inactive: 10.2%
CC(=O)OC1COC(N2CCc3ccccc32)C(OC(C)=O)C1OC(C)=O (configuration not stated)	inconclusive: -43%
CNC(=O)C(=O)Nc1c(C)cc(C)cc1C	inactive: 10.4%
Cc1cc(C)c2c(N)c(C(=O)Nc3nccs3)sc2n1	inactive: 33.1%
Cc1ccc2nc(N(CCN(C)C)C(=O)c3ccc4c(c3)OCCO4)sc2c1	inactive: -6.68%
Cc1cccc(C)c1-n1nnnc1-c1nc2ccccc2[nH]c1=O	inconclusive: -45%
COCC(C)NC(=O)CCS(=O)(=O)c1nc(-c2ccc(OC)cc2)cc(C(F)(F)F)n1 (configuration not stated)	active: -86.9%
COc1cccc(OCCCCSc2ncccn2)c1	inconclusive: -30.2%
O=C(Nc1ccccc1F)N(CCCN1CCOCC1)Cc1cc2cc3c(cc2[nH]c1=O)OCCO3	active: -54.7%
O=[N+]([O-])c1ccccc1/C=C/C=N/Nc1ccc(S(=O)(=O)Nc2ccc(Cl)cc2)cc1[N+](=O)[O-]	inconclusive: -41.3%
COc1ccc(Cl)cc1C(=O)NCCN(C)C	active: -71.8%
CCn1cc([N+](=O)[O-])c(C(=O)N2N=C(c3cccc4ccccc34)CC2c2ccccc2O)n1 (configuration not stated)	inconclusive: -43.1%
Cc1ccccc1OCC(O)CN1CCN(c2ccc(Cl)cc2)CC1 (configuration not stated)	inconclusive: -41.9%
CCCc1c(-c2cccc(Cl)c2)ncn1CCc1ccccc1OC	inactive: 12.1%
CCOc1ccc(N(CC(=O)NC2CCCCCC2)S(=O)(=O)c2ccccc2)cc1	inactive: 4.04%
CCS(=O)(=O)n1c(Cc2cccs2)nc2ccccc21	inconclusive: -48.3%
Cc1ccc(-c2ccc(C)c(N)c2C)c(C)c1N	inconclusive: -32%

Structure (SMILES)	max response, negative = inhibition
O=C(/C=C(\c1ccc(Cl)cc1)n1cncn1)c1ccc(Cl)cc1	inactive: -26.8%
CC(C)(C)NC(=O)C(c1ccc(C(F)(F)F)cc1)n1c(=O)c(-c2ccccc2)nc2ccccc21 (configuration not stated)	inconclusive: -32.8%
Cc1ccc(S(=O)(=O)Nc2ccc3nc(C)sc3c2)cc1	inactive: 22.3%
CCN1CSC(=S)N(Cc2ccc(OC)cc2)C1	inconclusive: -39.7%
CC1Cc2nc(SCC(=O)N3CCCCC3)n(C)c(=O)c2S1 (configuration not stated)	inactive: 0.34%
CCn1cc(C(=O)NC(=S)Nc2ccccc2[N+](=O)[O-])cn1	inconclusive: -31%
Cc1ccc(C(=O)NCCN2C3=NC[C@@H](Cc4ccccc4)N3C[C@H]2Cc2ccc(O)cc2)cc1Br	active: -57.6%
Cc1ccc(NC(=O)c2ccc(NCCCN3CCC(C)CC3)c([N+](=O)[O-])c2)cc1F	active: -65.1%
COc1ccc(C(CNC(=O)c2cccc(S(=O)(=O)Nc3ccc(F)cc3)c2)N(C)C)cc1 (configuration not stated)	inconclusive: -46.2%
COC(=O)[C@@]12CCCN1[C@H](c1ccc(-c3ccc4c(c3)OCO4)c(OC)c1)[C@H]1C(=O)N(C)C(=O)[C@H]12	inactive: 3.63%
CC(C)(C)OC(=O)[C@H](Cc1ccccc1)NC(=O)c1[nH]cnc1C(=O)Nc1cccc(Cl)c1	active: -53.9%
CCn1nccc1C(=O)Nc1nc2ccccc2n1CCN1CCCCC1	active: -87.2%
COc1cc(C(CCN2CCCC2)c2c(OC)cc(OC)c3ccc(=O)oc23)cc(OC)c1OC (configuration not stated)	inconclusive: -30.2%
CC(C(=O)N1CCCCC1)N(C)CC(=O)Nc1ccc(F)c(F)c1F (configuration not stated)	inactive: 10.7%
Cc1ccc2nc(NNC(=O)c3ccc(S(=O)(=O)N4CCc5ccccc5C4)cc3)sc2c1	inactive: 13.3%
Nc1ccc(Oc2ccccc2-c2ccccc2)cc1	inconclusive: -45.4%
CC(=O)N1c2ccc3ccccc3c2C(C)CC12CCCCC2 (configuration not stated)	inconclusive: -34.3%
CCN(CC)CCSc1nc2c([nH]1)c(=S)n(C)c(=O)n2C	inactive: 0%
CNC(=S)Nc1cccc(Cl)c1C	inconclusive: -30.9%
Cc1ccc(C2CN=NC23CCc2ccccc2C3=O)cc1 (configuration not stated)	inconclusive: -34.5%
CC(C)Oc1ccc(CCC(=O)NNC(=S)Nc2ccccc2)cc1	inconclusive: -35.4%
Cc1cc(NC(=O)CSc2nnc(CNC(=O)c3cccc(C(F)(F)F)c3)o2)no1	inactive: -12.1%

7 of the compounds above, as a markdown table.

| Structure (SMILES) | max response, negative = inhibition |
| --- | --- |
| Cc1cc(C)nc(Sc2ncnc3sc4c(c23)CCC4)n1 | inactive: 0.701% |
| O=C(O)c1cccc(NC(=O)C2CC(=O)N(Cc3ccccc3)C2)c1 (configuration not stated) | active: -50.6% |
| COc1cccc(OCCCCSc2ncccn2)c1 | inconclusive: -30.2% |
| O=[N+]([O-])c1ccccc1/C=C/C=N/Nc1ccc(S(=O)(=O)Nc2ccc(Cl)cc2)cc1[N+](=O)[O-] | inconclusive: -41.3% |
| CCCc1c(-c2cccc(Cl)c2)ncn1CCc1ccccc1OC | inactive: 12.1% |
| CCn1nccc1C(=O)Nc1nc2ccccc2n1CCN1CCCCC1 | active: -87.2% |
| Cc1ccc(C2CN=NC23CCc2ccccc2C3=O)cc1 (configuration not stated) | inconclusive: -34.5% |

Additional structures:

Structure (SMILES)	max response, negative = inhibition
Cc1ccnc(NC(=O)CCC(=O)N(CC(=O)NCc2ccccc2)c2ccc3c(c2)OCO3)c1	inconclusive: -37.8%
Cc1ccc(C(=O)N2CCC(n3nccc3NC(=O)c3ccccc3C)CC2)cn1	inactive: 2.93%
COc1ccccc1-c1c(C)c(C)nc(N)c1C#N	inactive: -1.04%
O=C(NCCc1ccco1)c1cc(COc2cccc(C(F)(F)F)c2)on1	inactive: -15.4%
O=C(NCCCNC1CCCCC1)c1ccc(/C=N/O)nc1	active: -60.3%
COC(=O)/C=C\C(=O)Nc1cccc([N+](=O)[O-])c1	inconclusive: -32.7%
CCOC(=O)c1sc(NC(C)=O)nc1C	inactive: 9.65%
CCn1c(=O)c(-c2nc3ccccc3[nH]2)c(O)c2ccccc21	active: -86.3%
CCN(CC)C(=O)Cn1c(=O)c2ccccc2n2c(=S)sc(-c3cccc(C)c3)c12	inactive: -3.79%
CN(C)CC(C)(C)CNC(=S)Nc1ccc(S(=O)(=O)N2CCOCC2)cc1	inactive: -19.7%
COc1ccc(/C=N/NC(=O)CCC(=O)Nc2ccccc2)cc1OC	inconclusive: -31.9%
CCC(=O)N1CCN(c2ccc(NC(=O)c3cc4ccccc4o3)cc2)CC1	inactive: 11%
O=C(CC1(O)C(=O)Nc2ccccc21)c1cccc(-n2cccc2)c1 (configuration not stated)	inactive: 11.7%
O=C(CCC(=O)N/N=C/c1cc(Cl)cc(Cl)c1O)NCc1ccccc1	active: -53.7%
COc1ccc(N(C)S(=O)(=O)c2cccc(C(=O)NCC(c3ccco3)N3CCCC3)c2)cc1 (configuration not stated)	active: -57.2%
COc1ccc(S(=O)(=O)Nc2nc3ccccc3s2)cc1	inconclusive: -37.6%
Cc1sc(NC(=O)/C=C/c2ccc3c(c2)OCO3)nc1-c1ccccc1	inactive: 19.2%
O=C(Nc1ccc2c(c1)OCO2)C1Cc2c(-c3ccc(Cl)cc3)ccnc2O1 (configuration not stated)	inconclusive: -34.8%
CC1(C)Oc2c(ccc(O)c2CN2CCOCC2)C2=C1CCCC2	inconclusive: -35.9%
COc1ccc(C)cc1Nc1ccc(C(=O)O)cc1[N+](=O)[O-]	inconclusive: -36.8%
CCc1nc2c(OCC3CCCCC3)cccn2c1N(C)C(=O)c1ccc(OC)cc1	inconclusive: -43.7%
